{
  "source": "patent US20180237358A1",
  "about": "“RADIOISOTOPE 18F SUBSTITUTED THIAMINE, AND SYNTHESIS METHOD AND USE THEREOF” (ZHONGSHAN HOSPITAL FUDAN UNIVERSITY, priority 2015, published 2018)",
  "origin": "cited, not measured here",
  "tested_on": "cerebral glucose metabolism",
  "details": "PET tracer, cited from earlier work",
  "data": [
    {"smiles": "OC[C@H]1O[C@@H](O)[C@H]([18F])[C@@H](O)[C@@H]1O", "note": "[2-[^18F]fluoro-2-deoxy-D-glucose]", "values": [
      {"measurement": "sensitivity in diagnosis of mild AD", "setting": "Bloudek 2011", "result": "up to 90%"},
      {"measurement": "specificity in diagnosis of mild AD", "setting": "Bloudek 2011", "result": "≤ 89", "unit": "%"},
      {"measurement": "predictive accuracy for development of amnestic mild cognitive impairment into AD", "setting": "Mosconi 2004", "result": 84, "unit": "%"}
    ]}
  ]
}
